# Assay results taken from the supplement of paper PMC10849652.
# Amino acid sequences for entries named in this document (tags omitted). A change or cut given only in a name is not applied to a line headed by its entry.
# UniProt O75818: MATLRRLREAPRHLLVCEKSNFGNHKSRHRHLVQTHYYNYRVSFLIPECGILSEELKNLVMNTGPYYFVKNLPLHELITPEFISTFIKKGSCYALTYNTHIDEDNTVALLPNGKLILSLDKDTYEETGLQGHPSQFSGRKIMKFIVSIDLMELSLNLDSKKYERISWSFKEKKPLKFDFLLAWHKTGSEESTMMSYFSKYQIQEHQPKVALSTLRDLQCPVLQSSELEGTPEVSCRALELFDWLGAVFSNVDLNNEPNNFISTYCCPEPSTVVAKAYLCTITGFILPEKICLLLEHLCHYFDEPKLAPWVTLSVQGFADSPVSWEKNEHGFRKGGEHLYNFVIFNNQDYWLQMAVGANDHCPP
# UniProt Q9H446: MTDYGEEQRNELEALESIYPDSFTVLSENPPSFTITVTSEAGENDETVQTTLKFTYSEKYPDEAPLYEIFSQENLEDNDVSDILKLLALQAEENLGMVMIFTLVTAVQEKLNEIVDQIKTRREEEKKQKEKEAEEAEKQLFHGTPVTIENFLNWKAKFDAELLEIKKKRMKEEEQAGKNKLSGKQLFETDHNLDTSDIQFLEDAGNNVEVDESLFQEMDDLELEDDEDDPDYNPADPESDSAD
# UniProt Q5VWQ0: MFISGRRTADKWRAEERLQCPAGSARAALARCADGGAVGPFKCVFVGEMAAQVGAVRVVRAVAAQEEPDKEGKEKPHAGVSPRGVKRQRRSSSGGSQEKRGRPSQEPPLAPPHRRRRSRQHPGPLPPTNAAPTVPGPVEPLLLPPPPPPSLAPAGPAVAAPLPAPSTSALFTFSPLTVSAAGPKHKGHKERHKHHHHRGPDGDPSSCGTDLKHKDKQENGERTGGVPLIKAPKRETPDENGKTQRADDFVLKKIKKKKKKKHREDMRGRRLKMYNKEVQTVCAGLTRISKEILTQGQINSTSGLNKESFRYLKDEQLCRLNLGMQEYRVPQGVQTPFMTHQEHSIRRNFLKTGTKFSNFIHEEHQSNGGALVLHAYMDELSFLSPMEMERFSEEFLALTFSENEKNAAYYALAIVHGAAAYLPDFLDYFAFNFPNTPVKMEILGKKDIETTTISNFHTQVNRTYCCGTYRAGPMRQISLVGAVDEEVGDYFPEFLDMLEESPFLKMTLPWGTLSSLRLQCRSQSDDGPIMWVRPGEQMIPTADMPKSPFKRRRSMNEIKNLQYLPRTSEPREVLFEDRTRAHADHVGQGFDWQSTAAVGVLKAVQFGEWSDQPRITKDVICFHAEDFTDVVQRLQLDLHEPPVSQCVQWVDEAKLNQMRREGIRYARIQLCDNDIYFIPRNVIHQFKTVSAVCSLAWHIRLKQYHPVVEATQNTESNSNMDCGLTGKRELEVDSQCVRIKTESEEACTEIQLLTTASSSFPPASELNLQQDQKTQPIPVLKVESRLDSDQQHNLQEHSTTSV
# UniProt O43818: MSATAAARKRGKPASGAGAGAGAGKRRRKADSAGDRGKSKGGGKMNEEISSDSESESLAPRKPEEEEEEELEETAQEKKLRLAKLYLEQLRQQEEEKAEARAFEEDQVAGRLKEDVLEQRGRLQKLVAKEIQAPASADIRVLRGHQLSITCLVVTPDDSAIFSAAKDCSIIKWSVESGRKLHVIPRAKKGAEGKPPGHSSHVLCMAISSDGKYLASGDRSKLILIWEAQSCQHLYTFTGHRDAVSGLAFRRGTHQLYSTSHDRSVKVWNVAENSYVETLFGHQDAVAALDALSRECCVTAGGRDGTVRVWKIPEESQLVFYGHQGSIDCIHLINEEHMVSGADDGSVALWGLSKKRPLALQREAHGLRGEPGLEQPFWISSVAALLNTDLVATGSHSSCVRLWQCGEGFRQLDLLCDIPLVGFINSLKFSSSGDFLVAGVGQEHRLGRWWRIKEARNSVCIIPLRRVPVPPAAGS
# UniProt O95197: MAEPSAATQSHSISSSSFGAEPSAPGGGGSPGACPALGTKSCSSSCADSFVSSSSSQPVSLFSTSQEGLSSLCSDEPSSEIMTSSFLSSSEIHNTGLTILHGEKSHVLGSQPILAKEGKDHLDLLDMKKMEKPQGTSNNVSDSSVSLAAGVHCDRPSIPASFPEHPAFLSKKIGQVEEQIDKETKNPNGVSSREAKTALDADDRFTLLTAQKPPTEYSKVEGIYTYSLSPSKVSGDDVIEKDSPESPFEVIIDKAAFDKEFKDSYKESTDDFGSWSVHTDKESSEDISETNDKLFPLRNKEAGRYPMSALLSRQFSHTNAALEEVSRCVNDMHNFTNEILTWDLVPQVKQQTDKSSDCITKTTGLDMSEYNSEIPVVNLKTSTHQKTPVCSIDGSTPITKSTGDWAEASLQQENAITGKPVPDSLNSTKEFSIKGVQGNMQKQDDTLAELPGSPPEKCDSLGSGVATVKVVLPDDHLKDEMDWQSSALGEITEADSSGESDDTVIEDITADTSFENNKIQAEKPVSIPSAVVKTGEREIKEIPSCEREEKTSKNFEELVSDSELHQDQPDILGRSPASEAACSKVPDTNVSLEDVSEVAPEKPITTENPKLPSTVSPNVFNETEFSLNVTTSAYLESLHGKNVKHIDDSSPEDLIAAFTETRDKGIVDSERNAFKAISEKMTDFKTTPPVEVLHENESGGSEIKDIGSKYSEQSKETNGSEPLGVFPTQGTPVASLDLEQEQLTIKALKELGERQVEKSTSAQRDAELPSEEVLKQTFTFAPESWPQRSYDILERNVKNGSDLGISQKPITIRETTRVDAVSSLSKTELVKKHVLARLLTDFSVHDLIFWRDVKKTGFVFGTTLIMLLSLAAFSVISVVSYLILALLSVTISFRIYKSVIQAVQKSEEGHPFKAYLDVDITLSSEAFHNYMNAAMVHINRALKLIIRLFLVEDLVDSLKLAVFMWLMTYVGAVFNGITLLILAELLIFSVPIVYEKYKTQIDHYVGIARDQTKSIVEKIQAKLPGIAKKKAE
# UniProt Q15418, whole entry, looked up: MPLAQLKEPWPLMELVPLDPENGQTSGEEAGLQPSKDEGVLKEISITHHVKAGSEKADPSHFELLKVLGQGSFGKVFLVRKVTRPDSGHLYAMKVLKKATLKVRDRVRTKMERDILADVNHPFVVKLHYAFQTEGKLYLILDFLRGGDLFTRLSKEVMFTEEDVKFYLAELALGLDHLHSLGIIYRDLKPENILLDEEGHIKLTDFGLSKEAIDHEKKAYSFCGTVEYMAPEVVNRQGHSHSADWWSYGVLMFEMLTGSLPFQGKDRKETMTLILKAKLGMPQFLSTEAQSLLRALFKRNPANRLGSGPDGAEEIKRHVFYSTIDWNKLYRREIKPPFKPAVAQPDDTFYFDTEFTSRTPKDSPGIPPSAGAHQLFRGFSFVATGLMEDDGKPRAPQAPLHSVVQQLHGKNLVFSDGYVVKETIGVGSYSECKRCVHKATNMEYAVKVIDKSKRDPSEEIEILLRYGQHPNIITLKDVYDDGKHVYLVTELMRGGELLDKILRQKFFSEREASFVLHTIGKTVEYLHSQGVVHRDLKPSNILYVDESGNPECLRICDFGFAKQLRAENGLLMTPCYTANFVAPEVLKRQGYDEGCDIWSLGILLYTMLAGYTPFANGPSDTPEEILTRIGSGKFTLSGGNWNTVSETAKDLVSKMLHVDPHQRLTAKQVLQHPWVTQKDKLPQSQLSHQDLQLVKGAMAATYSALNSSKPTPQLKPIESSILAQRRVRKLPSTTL
# UniProt O43159: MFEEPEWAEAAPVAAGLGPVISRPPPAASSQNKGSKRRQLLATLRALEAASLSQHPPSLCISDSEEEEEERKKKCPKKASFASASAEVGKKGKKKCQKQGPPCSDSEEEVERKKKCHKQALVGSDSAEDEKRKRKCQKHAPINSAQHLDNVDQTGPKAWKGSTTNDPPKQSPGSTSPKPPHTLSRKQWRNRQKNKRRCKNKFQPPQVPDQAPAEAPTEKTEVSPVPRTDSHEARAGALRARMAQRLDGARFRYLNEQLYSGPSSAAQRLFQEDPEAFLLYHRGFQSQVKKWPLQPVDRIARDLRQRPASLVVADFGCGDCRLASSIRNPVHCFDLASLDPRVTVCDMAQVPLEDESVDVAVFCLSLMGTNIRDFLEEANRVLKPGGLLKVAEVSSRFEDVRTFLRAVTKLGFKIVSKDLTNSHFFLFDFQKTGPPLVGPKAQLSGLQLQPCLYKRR
# UniProt P56182: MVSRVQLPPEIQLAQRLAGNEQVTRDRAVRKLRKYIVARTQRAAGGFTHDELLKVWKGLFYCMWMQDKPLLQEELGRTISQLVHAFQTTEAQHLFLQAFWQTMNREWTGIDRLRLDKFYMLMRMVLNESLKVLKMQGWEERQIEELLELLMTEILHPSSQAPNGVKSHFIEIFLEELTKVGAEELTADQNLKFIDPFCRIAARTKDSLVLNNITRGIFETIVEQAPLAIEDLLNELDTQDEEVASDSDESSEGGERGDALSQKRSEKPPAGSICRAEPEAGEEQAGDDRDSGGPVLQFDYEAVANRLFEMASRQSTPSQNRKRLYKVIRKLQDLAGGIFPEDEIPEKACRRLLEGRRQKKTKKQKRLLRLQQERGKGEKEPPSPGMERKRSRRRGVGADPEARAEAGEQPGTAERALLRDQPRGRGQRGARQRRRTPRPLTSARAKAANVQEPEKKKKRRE
# This is one part of the list.
# How the values were obtained:
# Assay in all cases: log2 fold change, soluble protein after heating vs DMSO (PISA); higher = thermal stabilisation; K562 lysate, 10 uM; active = over 0.2 and 3.5 SD of the protein, either way, in both replicates (recomputed)
# erlotinib = compound: C#Cc1cccc(Nc2ncnc3cc(OCCOC)c(OCCOC)cc23)c1 [erlotinib]
# How it was run: (§1)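 Dounce homogenisation of K562 pellets in PBS pH 7.4 with 1 mM MgCl2 produced a crude extract, used at 1 mg/mL protein. Exposure to 10 μM compound lasted 30 min, and aliquots were then heated for 3 min across 48°C-58°C, pooled and brought to 0.5% NP-40 at 4°C. The supernatant after 21,000xg for 90 min was quantified by TMTpro 16plex LC-MS/MS with channel sums equalised. Duplicate values are given as log-two fold change in thermal stability relative to solvent controls.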
# [1] = compound: C/C(=N\NC(=O)C1=CC(=CC=C1)S(=O)(=O)N2CCOCC2)/C3=C(C=CC(=C3)Cl)O
# How it was run: as §1
# [2] = compound: C1=CC(=CC=C1C2=NC3=C(N2)C=C(C=C3)C(=O)N)OC4=CC=C(C=C4)Cl
# How it was run: as §1
# [3] = compound: C1=CC2=C(C=CC(=C2)/C=C\3/C(=O)NC(=NCC4=CC=CS4)S3)N=C1
# How it was run: as §1
# [4] = compound: C1=CC2=NC=CN=C2C=C1/C=C/3\C(=O)NC(=O)S3
# How it was run: as §1
# [5] = compound: C1=CC=C(C=C1)C2=NC(=C(N2)C3=CC=NC=C3)C4=CC(=C(C=C4)Cl)O
# How it was run: as §1
# [6] = compound: C1=CC=C2C(=C1)C3=NNC4=CC=CC(=C43)C2=O
# How it was run: as §1
# [7] = compound: C1CCN(C1)C(=O)NC2=CC=CC(=C2)NC3=NC=C(C(=N3)NCCC4=CN=CN4)Br
# How it was run: as §1
# [8] = compound: C1CN(CCC1(CC2=CC=C(C=C2)Cl)N)C3=NC=NC4=C3C=CN4
# How it was run: as §1
# IRAK-1-4 Inhibitor I = compound: C1COCCN1CCN2C3=CC=CC=C3N=C2NC(=O)C4=CC(=CC=C4)[N+](=O)[O-] [IRAK-1-4 Inhibitor I]
# How it was run: as §1
# ibrutinib = compound: C=CC(=O)N1CCC[C@@H](n2nc(-c3ccc(Oc4ccccc4)cc3)c3c(N)ncnc32)C1 [ibrutinib]
# How it was run: as §1
# [9] = compound: CC(=O)c1cnc2ccc(-c3cc(Cl)c(O)c(Cl)c3)nc2c1N[C@H]1CC[C@H](CN(C)C)CC1
# How it was run: as §1
# ralimetinib = compound: CC(C)(C)Cn1c(N)nc2ccc(-c3[nH]c(C(C)(C)C)nc3-c3ccc(F)cc3)nc21 [ralimetinib]
# How it was run: as §1
# [10] = compound: CC(C)(O)CC(=O)NCCn1ccc2ncnc(Nc3ccc(Oc4cccc(C(F)(F)F)c4)c(Cl)c3)c21
# How it was run: as §1
# [11] = compound: CC(C)C1=C2N=C(C=C(N2N=C1)NCC3=CC=CC=C3)NCCCCCCN
# How it was run: as §1
# [12] = compound: CC1=C(C(CC(=O)N1)C2=CC=C(C=C2)C(F)(F)F)C(=O)NC3=C(C=C4C(=C3)C=NN4)F
# How it was run: as §1
# [13] = compound: CC1=C(C2=C(C=C1)C(=O)C3=CC=CC=C3N2CCCN)C
# How it was run: as §1
# [14] = compound: CC1=C(C=C(C=C1)NC(=O)C2=CC(=CC=C2)C(C)(C)C#N)NC3=CC4=C(C=C3)N=CN(C4=O)C
# How it was run: as §1
# [15] = compound: CC1=C(C=C(C=C1)NC(=O)C2=CC(=CC=C2)N(C)C)NC(=O)C3=CC=C(C=C3)O
# How it was run: as §1
# [16] = compound: CC1=CC=C(C=C1)SC2=C3C=C(SC3=CN=C2)C(=O)N
# How it was run: as §1
Target,log2 fold change (erlotinib),log2 fold change [1],log2 fold change [2],log2 fold change [3],log2 fold change [4],log2 fold change [5],log2 fold change [6],log2 fold change [7],log2 fold change [8],log2 fold change (IRAK-1-4 Inhibitor I),log2 fold change (ibrutinib),log2 fold change [9],log2 fold change (ralimetinib),log2 fold change [10],log2 fold change [11],log2 fold change [12],log2 fold change [13],log2 fold change [14],log2 fold change [15],log2 fold change [16]
RPS23 (UniProt P62266),inactive: -0.002,inactive: -0.066,inactive: -0.011,inactive: -0.058,inactive: -0.048,inactive: -0.001,inactive: 0.01,inactive: 0.01,inactive: 0.007,inactive: 0.018,inactive: 0.012,inactive: -0.007,inactive: -0.008,inactive: -0.033,inactive: 0.04,inactive: -0.029,inactive: -0.124,inactive: -0.003,inactive: -0.024,inactive: 0.035
RPP40 (UniProt O75818),inactive: -0.023,inactive: -0.019,inactive: -0.03,inactive: 0.025,inactive: -0.043,inactive: 0.017,inactive: 0.035,inactive: 0.059,inactive: -0.031,inactive: -0.01,inactive: 0.003,inactive: 0.007,inactive: 0.023,inactive: 0.019,inactive: -0.029,inactive: 0.007,inactive: -0.005,inactive: -0.009,inactive: -0.02,inactive: 0.004
RPS29 (UniProt P62273),inactive: 0.088,inactive: 0.023,inactive: 0.018,inactive: -0.064,inactive: -0.026,inactive: 0.017,inactive: 0.051,inactive: 0.018,inactive: -0.037,inactive: 0.046,inactive: 0.002,inactive: 0.025,inactive: -0.138,inactive: 0.03,inactive: -0.109,inactive: 0.086,inactive: -0.093,inactive: -0.108,inactive: -0.068,inactive: 0.058
RWDD1 (UniProt Q9H446),inactive: -0.015,inactive: 0.007,inactive: 0.015,inactive: 0.003,inactive: -0.033,inactive: 0.01,inactive: 0.061,inactive: -0.017,inactive: -0.032,inactive: 0.003,inactive: 0.013,inactive: 0.001,inactive: 0.011,inactive: -0.023,inactive: -0.036,inactive: 0.013,inactive: -0.015,inactive: -0.041,inactive: -0.042,inactive: -0.011
RPS18 (UniProt P62269),inactive: -0.021,inactive: -0.088,inactive: -0.007,inactive: -0.006,inactive: -0.004,inactive: -0.012,inactive: -0.007,inactive: 0.005,inactive: 0.004,inactive: 0.047,inactive: -0.016,inactive: 0.01,inactive: -0.006,inactive: -0.02,inactive: 0.008,inactive: -0.037,inactive: -0.1,inactive: 0,inactive: -0.006,inactive: -0.012
RSBN1 (UniProt Q5VWQ0),inactive: -0.021,inactive: -0.06,inactive: -0.01,inactive: 0,inactive: -0.005,inactive: 0.025,inactive: 0.023,inactive: -0.017,inactive: -0.012,inactive: -0.002,inactive: -0.016,inactive: -0.01,inactive: 0.055,inactive: -0.014,inactive: 0,inactive: -0.036,inactive: -0.017,inactive: 0.043,inactive: 0.002,inactive: 0.026
RPS13 (UniProt P62277),inactive: -0.055,inactive: 0.015,inactive: -0.062,inactive: -0.033,inactive: -0.018,inactive: 0.009,inactive: 0.013,inactive: 0.038,inactive: -0.058,inactive: 0.023,inactive: 0.013,inactive: 0.024,inactive: 0.02,inactive: 0.022,inactive: -0.026,inactive: -0.032,inactive: -0.069,inactive: -0.022,inactive: -0.035,inactive: 0.062
RPL4 (UniProt P36578),inactive: -0.005,inactive: -0.257,inactive: -0.009,inactive: -0.012,inactive: -0.017,inactive: 0.018,inactive: 0.036,inactive: 0.051,inactive: -0.02,inactive: -0.008,inactive: -0.015,inactive: 0.014,inactive: -0.019,inactive: 0.007,inactive: -0.008,inactive: -0.023,inactive: 0.001,inactive: -0.03,inactive: 0.002,inactive: 0.033
RRP9 (UniProt O43818),inactive: -0.155,inactive: -0.02,inactive: -0.096,inactive: -0.041,inactive: -0.018,inactive: -0.006,inactive: -0.117,inactive: -0.229,inactive: -0.063,inactive: 0.004,inactive: -0.035,inactive: -0.007,inactive: -0.017,inactive: -0.065,inactive: 0.002,inactive: -0.007,inactive: -0.02,inactive: 0.002,inactive: -0.013,inactive: -0.027
RTN3 isoform 5 (UniProt O95197),inactive: 0.132,inactive: 0.102,inactive: -0.142,inactive: -0.013,inactive: 0.03,inactive: -0.021,inactive: 0.002,inactive: 0.014,inactive: -0.029,inactive: 0.153,inactive: -0.16,inactive: 0.025,inactive: 0.02,inactive: -0.006,inactive: 0.009,inactive: 0.091,inactive: 0.046,inactive: 0.006,inactive: 0,inactive: 0.014
RPS25 (UniProt P62851),inactive: -0.008,inactive: -0.048,inactive: -0.035,inactive: -0.041,inactive: -0.047,inactive: 0.011,inactive: 0.01,inactive: 0.031,inactive: 0.026,inactive: 0.009,inactive: -0.021,inactive: 0.023,inactive: -0.033,inactive: -0.011,inactive: 0.009,inactive: -0.032,inactive: -0.038,inactive: 0.003,inactive: -0.032,inactive: 0.065
RPL7 (UniProt P18124),inactive: 0.003,inactive: 0.004,inactive: 0.002,inactive: -0.003,inactive: -0.005,inactive: 0.009,inactive: 0.033,inactive: 0.05,inactive: -0.004,inactive: 0.008,inactive: -0.021,inactive: -0.01,inactive: -0.023,inactive: -0.007,inactive: 0.011,inactive: -0.01,inactive: -0.037,inactive: 0.003,inactive: -0.018,inactive: 0.03
RPS6KA1 (UniProt Q15418),inactive: 0.001,inactive: -0.064,inactive: 0.006,inactive: -0.029,inactive: 0.04,inactive: 0.13,active: 0.509,inactive: -0.009,inactive: 0.06,inactive: -0.036,inactive: 0.047,active: 0.555,inactive: 0.32,inactive: -0.077,inactive: -0.011,inactive: -0.032,inactive: -0.035,inactive: -0.043,inactive: -0.052,inactive: -0.023
RRP8 (UniProt O43159),inactive: -0.025,inactive: -0.004,inactive: -0.072,inactive: 0.016,inactive: -0.018,inactive: 0.034,inactive: -0.019,inactive: -0.009,inactive: 0.021,inactive: 0.015,inactive: -0.003,inactive: 0.01,inactive: 0.024,inactive: -0.011,inactive: 0.066,inactive: -0.079,inactive: 0.019,inactive: 0.071,inactive: 0.03,inactive: 0.051
RRP1 (UniProt P56182),inactive: 0.05,inactive: 0.031,inactive: -0.094,inactive: -0.042,inactive: 0.042,inactive: -0.009,inactive: 0.029,inactive: 0.021,inactive: 0.01,inactive: -0.049,inactive: -0.067,inactive: 0.048,inactive: 0.056,inactive: -0.038,inactive: -0.044,inactive: -0.013,inactive: 0.001,inactive: -0.075,inactive: 0.103,inactive: 0.022
RPS3A (UniProt P61247),inactive: -0.051,inactive: 0.034,inactive: -0.022,inactive: -0.016,inactive: -0.004,inactive: -0.007,inactive: 0.044,inactive: 0.026,inactive: -0.038,inactive: -0.021,inactive: -0.011,inactive: 0.02,inactive: 0.009,inactive: 0.032,inactive: -0.024,inactive: -0.005,inactive: -0.049,inactive: -0.052,inactive: 0.012,inactive: 0.055

# Single records, as listed above. Values in the order: log2 fold change (erlotinib)	log2 fold change [1]	log2 fold change [2]	log2 fold change [3]	log2 fold change [4]	log2 fold change [5]	log2 fold change [6]	log2 fold change [7]	log2 fold change [8]	log2 fold change (IRAK-1-4 Inhibitor I)	log2 fold change (ibrutinib)	log2 fold change [9]	log2 fold change (ralimetinib)	log2 fold change [10]	log2 fold change [11]	log2 fold change [12]	log2 fold change [13]	log2 fold change [14]	log2 fold change [15]	log2 fold change [16]
# RPS23 (UniProt P62266) in the list: inactive: -0.002	inactive: -0.066	inactive: -0.011	inactive: -0.058	inactive: -0.048	inactive: -0.001	inactive: 0.01	inactive: 0.01	inactive: 0.007	inactive: 0.018	inactive: 0.012	inactive: -0.007	inactive: -0.008	inactive: -0.033	inactive: 0.04	inactive: -0.029	inactive: -0.124	inactive: -0.003	inactive: -0.024	inactive: 0.035
# RRP9 (UniProt O43818) in the list: inactive: -0.155	inactive: -0.02	inactive: -0.096	inactive: -0.041	inactive: -0.018	inactive: -0.006	inactive: -0.117	inactive: -0.229	inactive: -0.063	inactive: 0.004	inactive: -0.035	inactive: -0.007	inactive: -0.017	inactive: -0.065	inactive: 0.002	inactive: -0.007	inactive: -0.02	inactive: 0.002	inactive: -0.013	inactive: -0.027
